Reference: PubChem BioAssay AID1688 (National Center for Advancing Translational Sciences (NCATS), 2009)
Hit rate of the full screen: of about 220,000 compounds, about 2,400 (1.1%) were called active. The shares of active, inactive and inconclusive entries below differ from those in the screen. Calls follow the shape of the dose curve; as a rule, active = well fitted inhibition curve with a large enough effect; inconclusive = small, poorly fitted or top-dose-only effect, or effect the other way; inactive = no such curve, though single readings can be large or run the other way. A potency beside an inconclusive call is a rough fit, not a confirmed value.
% is scaled to controls: 0 for no effect and ±100 for the full control effect; potency is read from the fitted curve at half-maximal effect.

Assay: qHTS Multiplex Assay to Identify Dual Action Probes in a Cell Model of Huntington: Aggregate Formation (GFP); also: nearly all actives have a fitted effect of over 60% in size
Details: PC12 HttQ103-GFP aggregates, Acumen cytometry, 40 h; activity change, negative = inhibition: at 46.1 µM (top of the series) unless noted
Procedure, shortened: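 Using laser scanning cytometry, GFP-positive aggregates were counted after lysis of PC12 cells induced with 100 nM tebufenozide to express HTT exon 1 Q103–GFP. Compounds were tested in titration.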
In the case of `COc1ccccc1-c1nnc2sc(-c3ccc(N(C)C)cc3)nn12`, the Potency is reported as inconclusive: 11.2 µM [activator, partial curve]. For `N#CCc1ccc(NC(=O)Nc2cccc(Cl)c2)cc1`, the Potency was inconclusive: 20 µM [inhibitor, single point]. For `O=C(CSC1=NCCS1)Nc1ccnc2ccccc12`, the Potency was active: 10 µM. With `Cc1ccc(S(=O)(=O)NCC(=O)N(CC(=O)NCc2ccco2)Cc2ccc3c(c2)OCO3)cc1` the Potency was inconclusive: 35.5 µM [inhibitor, single point]. With `CCc1nnc(NC(=O)c2sc3nc4c(cc3c2N)CCCCCC4)s1` the Potency was inconclusive: 35.5 µM [activator, single point]. In the case of `Cc1ccc(C(C[N+](=O)[O-])c2c(-c3ccccc3O)[nH][nH]c2=O)cc1` (stereo not given), the Potency is reported as inconclusive: 35.5 µM [inhibitor, single point]. With `Cc1c(C(Nc2ccccn2)c2ccccc2)c(=O)n(-c2ccccc2)n1C` (stereo not given) the Potency was “inactive”. With `CCc1ccc(N(C(=O)c2csnn2)C(C(=O)NCc2ccccc2)c2ccco2)cc1` (stereo not given) the Potency was inconclusive: 15.8 µM [inhibitor, single point]. With `CC(OC(=O)C1=Cc2ccccc2OC1)C(=O)NCc1ccco1` (stereo not given) the Potency was “inactive”. For `CNC(=O)c1nc(C)n(-c2cc(Cl)ccc2Cl)n1`, the Potency was “inactive”. For `Cc1ccc2cc(C3C(C#N)=C(N)Oc4c3ccc3cccnc43)c(=O)[nH]c2c1` (stereo not given), the Potency was active: 2.51 µM. For `CCCCc1cc2c(cc1NC(=O)CN1CCCCC1)OCCO2`, the activity change, negative = inhibition was inactive: -5.33% [at 9.22 µM]. For `COc1ccc(OC)c(C2C3CN(C(C)C)CC=C3C(C#N)=C(N)C2(C#N)C#N)c1` (stereo not given), the Potency was inconclusive: 35.5 µM [activator, single point]. With `Cc1ccc([N+](=O)[O-])c(C)[n+]1C` the Potency was “inactive”. For `CCN(C(=O)c1ccc(C(C)(C)C)cc1)c1nnc(Cn2nnc3ccccc32)s1`, the Potency was active: 6.31 µM. For `CC(C)=CC(=O)OCC(=O)Nc1cccc([N+](=O)[O-])c1`, the Potency was inconclusive: 5.62 µM [inhibitor, single point]. For `Cc1nc(NC(=O)c2ccc(Br)s2)sc1C(=O)N(C)C`, the Potency was inconclusive: 0.562 µM [activator, full curve]. In the case of `O=C(NNc1nc(-c2ccc(F)cc2)cs1)c1ccccc1`, the Potency is reported as inconclusive: 15.8 µM [inhibitor, single point]. For `Cc1cc(C)n2nc(/C(C#N)=C/c3ccccn3)c(C#N)c2n1`, the Potency was inconclusive: 35.5 µM [inhibitor, single point]. With `COC(=O)c1c(-c2ccc(Br)cc2)csc1NC(=O)Cc1ccc(OC)c(OC)c1` the Potency was inconclusive: 15.8 µM [inhibitor, single point].
